Among the data in article PMC11792055 are binding values, retold here.

Protein sequences, listed by entry. Tags and fused reporters are not part of them. Lines headed by an entry give the natural chain unless they say otherwise; changes in a name come on top. Chains listed by the source or under a name are the forms on record and can include a tag or linker. Residues count along the entry.
UniProt P07948: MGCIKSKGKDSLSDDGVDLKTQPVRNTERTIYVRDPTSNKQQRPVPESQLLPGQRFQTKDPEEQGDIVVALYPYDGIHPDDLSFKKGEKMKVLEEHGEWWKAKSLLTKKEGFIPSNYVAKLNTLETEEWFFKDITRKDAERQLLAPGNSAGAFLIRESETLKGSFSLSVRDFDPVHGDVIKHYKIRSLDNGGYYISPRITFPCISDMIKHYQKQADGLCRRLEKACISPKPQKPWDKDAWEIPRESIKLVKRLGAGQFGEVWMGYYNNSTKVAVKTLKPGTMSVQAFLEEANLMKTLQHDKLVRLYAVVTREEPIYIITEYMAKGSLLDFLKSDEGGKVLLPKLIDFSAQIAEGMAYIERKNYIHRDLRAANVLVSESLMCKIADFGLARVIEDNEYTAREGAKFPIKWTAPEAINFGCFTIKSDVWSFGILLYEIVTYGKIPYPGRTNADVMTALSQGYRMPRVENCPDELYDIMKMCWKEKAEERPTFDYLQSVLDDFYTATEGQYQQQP
Lyn SH3 truncated form with a Flag tag and a GFP tag: residues 63-123 of P07948
Lyn SH2 truncated form with a Flag tag and a GFP tag: residues 129-226 of P07948
UniProt Q9Y265: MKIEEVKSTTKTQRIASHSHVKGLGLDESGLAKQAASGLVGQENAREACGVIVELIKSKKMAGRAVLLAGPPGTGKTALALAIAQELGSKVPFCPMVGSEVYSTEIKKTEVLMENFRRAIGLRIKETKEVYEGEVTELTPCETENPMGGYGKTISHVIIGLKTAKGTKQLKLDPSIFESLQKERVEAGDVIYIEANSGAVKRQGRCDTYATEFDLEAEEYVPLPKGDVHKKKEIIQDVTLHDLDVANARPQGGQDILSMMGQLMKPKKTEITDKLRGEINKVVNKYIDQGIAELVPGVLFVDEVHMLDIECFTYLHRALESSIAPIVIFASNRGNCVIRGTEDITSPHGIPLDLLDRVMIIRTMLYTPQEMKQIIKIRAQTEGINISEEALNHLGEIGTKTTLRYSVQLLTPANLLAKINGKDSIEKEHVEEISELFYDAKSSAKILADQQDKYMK
UniProt Q07065: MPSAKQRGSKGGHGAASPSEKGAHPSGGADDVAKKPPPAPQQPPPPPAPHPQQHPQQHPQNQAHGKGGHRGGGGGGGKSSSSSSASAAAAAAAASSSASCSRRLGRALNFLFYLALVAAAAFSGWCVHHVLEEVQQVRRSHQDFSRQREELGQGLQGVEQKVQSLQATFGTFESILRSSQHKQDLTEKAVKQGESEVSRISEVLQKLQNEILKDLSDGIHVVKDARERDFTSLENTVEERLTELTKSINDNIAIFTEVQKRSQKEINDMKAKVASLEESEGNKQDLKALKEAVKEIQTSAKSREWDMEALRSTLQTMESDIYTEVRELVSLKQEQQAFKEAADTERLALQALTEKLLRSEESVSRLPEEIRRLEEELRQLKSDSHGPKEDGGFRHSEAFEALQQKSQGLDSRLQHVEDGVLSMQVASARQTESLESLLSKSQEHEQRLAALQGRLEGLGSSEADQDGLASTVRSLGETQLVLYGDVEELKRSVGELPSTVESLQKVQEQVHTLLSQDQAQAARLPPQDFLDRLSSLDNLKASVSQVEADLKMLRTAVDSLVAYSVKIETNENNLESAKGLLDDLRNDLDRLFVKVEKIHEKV

In test [1] the target is Lck/yes-related protein tyrosine kinase (Lyn) (human (endogenous in colon cancer cells)) (UniProt P07948). In words: co-IP; Lyn antibody used to precipitate from colon cancer cells; partners detected by blot.
For test [2] the target is unchanged. In words: proximity ligation; NaveniFlex Cell MR Kit (Navinci); fixed colon cancer cells, primary antibodies to Lyn and RUVBL1, fluorescence microscopy.
Test [3] concerns the target Lyn SH2 truncated form with a Flag tag and a GFP tag (UniProt P07948). In words: co-IP; 293T cells cotransfected with Flag/GFP-tagged Lyn truncated forms and HA/RFP-tagged RUVBL1.
In test [4] the target is Lyn SH3 truncated form with a Flag tag and a GFP tag (UniProt P07948). The description is as above.
In another test the target is GST-Lyn (UniProt P07948). In words: pull-down; GST pull-down kit (Thermo Fisher Scientific); GST-Lyn from E. coli BL21 attached to a glutathione column; RUVBL1 overexpressed in 293T cells; eluate analysed by Western blotting; only the target purified. (In general: In western blotting, separated proteins are transferred to a membrane and probed.)
For test [5], the target named is T1, β-catenin (human (endogenous in colon cancer cells)), P35222.
T1 chain: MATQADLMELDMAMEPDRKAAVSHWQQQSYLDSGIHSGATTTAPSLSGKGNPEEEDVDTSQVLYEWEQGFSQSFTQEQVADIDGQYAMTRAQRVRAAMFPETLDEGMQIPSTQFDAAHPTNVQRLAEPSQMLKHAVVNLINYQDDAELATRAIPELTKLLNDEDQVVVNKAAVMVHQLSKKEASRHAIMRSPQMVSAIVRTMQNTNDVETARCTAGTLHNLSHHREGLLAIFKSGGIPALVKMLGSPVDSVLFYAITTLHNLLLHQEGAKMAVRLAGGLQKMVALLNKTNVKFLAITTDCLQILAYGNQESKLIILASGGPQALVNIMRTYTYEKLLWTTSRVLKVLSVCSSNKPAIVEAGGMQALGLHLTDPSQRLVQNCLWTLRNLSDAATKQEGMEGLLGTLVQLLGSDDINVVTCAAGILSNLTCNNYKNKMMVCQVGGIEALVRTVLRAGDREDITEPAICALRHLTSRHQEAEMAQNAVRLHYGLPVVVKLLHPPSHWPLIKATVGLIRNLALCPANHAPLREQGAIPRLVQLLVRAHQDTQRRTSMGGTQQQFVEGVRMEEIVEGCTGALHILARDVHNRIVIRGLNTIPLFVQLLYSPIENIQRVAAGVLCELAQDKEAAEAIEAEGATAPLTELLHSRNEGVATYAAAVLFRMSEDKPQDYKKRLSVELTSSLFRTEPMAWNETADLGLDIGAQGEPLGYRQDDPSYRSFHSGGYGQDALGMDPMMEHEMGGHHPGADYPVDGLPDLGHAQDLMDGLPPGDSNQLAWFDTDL
As to the kind of experiment: co-IP; IP in colon cancer cells. As to conditions: remark: other sources report otherwise.

These are yes or no findings as the source states them, for the method shown. Binding seen in cells or lysates may run through a third protein. Some results given as binding are weak or reduced against the parent protein; the word gives no strength.

Consider “ruvB like AAA ATPase 1 (RUVBL1) (from UniProt Q9Y265 1-456)”, for which the binding result in test [1] and in test [2] was “binds” throughout.
Take “cytoskeleton-associated protein 4 (CKAP4) (from UniProt Q07065 1-602)”: the binding entry in test [1] was “binds”.
On to “RUVBL1 tagged with an HA tag and an RFP tag (overexpression plasmid) (from UniProt Q9Y265 1-456)”, for which the binding entry (in test [3]; in test [4]; with GST-Lyn) was “binds” throughout.

B1: tribbles homolog 3 (TRIB3), Q96RU7 1-358 (protein)
chain: MRATPLAAPAGSLSRKKRLELDDNLDTERPVQKRARSGPQPRLPPCLLPLSPPTAPDRATAVATASRLGPYVLLEPEEGGRAYQALHCPTGTEYTCKVYPVQEALAVLEPYARLPPHKHVARPTEVLAGTQLLYAFFTRTHGDMHSLVRSRHRIPEPEAAVLFRQMATALAHCHQHGLVLRDLKLCRFVFADRERKKLVLENLEDSCVLTGPDDSLWDKHACPAYVGPEILSSRASYSGKAADVWSLGVALFTMLAGHYPFQDSEPVLLFGKIRRGAYALPAGLSAPARCLVRCLLRREPAERLTATGILLHPWLRQDPMPLAPTRSHLWEAAQVVPDGLGLDEAREEEGDREVVLYG
Consider B1, for which the binding result in test [5] is given as “binds”.

B2: tight junction protein 2 (TJP2) (protein, UniProt Q9UDY2 1-1190)
chain: MPVRGDRGFPPRRELSGWLRAPGMEELIWEQYTVTLQKDSKRGFGIAVSGGRDNPHFENGETSIVISDVLPGGPADGLLQENDRVVMVNGTPMEDVLHSFAVQQLRKSGKVAAIVVKRPRKVQVAALQASPPLDQDDRAFEVMDEFDGRSFRSGYSERSRLNSHGGRSRSWEDSPERGRPHERARSRERDLSRDRSRGRSLERGLDQDHARTRDRSRGRSLERGLDHDFGPSRDRDRDRSRGRSIDQDYERAYHRAYDPDYERAYSPEYRRGARHDARSRGPRSRSREHPHSRSPSPEPRGRPGPIGVLLMKSRANEEYGLRLGSQIFVKEMTRTGLATKDGNLHEGDIILKINGTVTENMSLTDARKLIEKSRGKLQLVVLRDSQQTLINIPSLNDSDSEIEDISEIESNRSFSPEERRHQYSDYDYHSSSEKLKERPSSREDTPSRLSRMGATPTPFKSTGDIAGTVVPETNKEPRYQEDPPAPQPKAAPRTFLRPSPEDEAIYGPNTKMVRFKKGDSVGLRLAGGNDVGIFVAGIQEGTSAEQEGLQEGDQILKVNTQDFRGLVREDAVLYLLEIPKGEMVTILAQSRADVYRDILACGRGDSFFIRSHFECEKETPQSLAFTRGEVFRVVDTLYDGKLGNWLAVRIGNELEKGLIPNKSRAEQMASVQNAQRDNAGDRADFWRMRGQRSGVKKNLRKSREDLTAVVSVSTKFPAYERVLLREAGFKRPVVLFGPIADIAMEKLANELPDWFQTAKTEPKDAGSEKSTGVVRLNTVRQIIEQDKHALLDVTPKAVDLLNYTQWFPIVIFFNPDSRQGVKTMRQRLNPTSNKSSRKLFDQANKLKKTCAHLFTATINLNSANDSWFGSLKDTIQHQQGEAVWVSEGKMEGMDDDPEDRMSYLTAMGADYLSCDSRLISDFEDTDGEGGAYTDNELDEPAEEPLVSSITRSSEPVQHEESIRKPSPEPRAQMRRAASSDQLRDNSPPPAFKPEPPKAKTQNKEESYDFSKSYEYKSNPSAVAGNETPGASTKGYPPPVAAKPTFGRSILKPSTPIPPQEGEEVGESSEEQDNAPKSVLGKVKIFEKMDHKARLQRMQELQEAQNARIEIAQKHPDIYAVPIKTHKPDPGTPQHTSSRPPEPQKAPSRPYQDTRGSYGSDAEEEEYRQQLSEHSKRGYYGQSARYRDTEL
B2: in test [1], the binding entry is on record as “binds”.
